Data as given in PubChem BioAssay AID1224826 (NIAID, 2016).

Assay: 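Genes that change LPS-induced Tnf promoter activity in mouse macrophages when knocked down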 (primary screen)
Cell system: RAW264.7 G9 macrophages from mouse bearing reporters for p65 (GFP) and the Tnf promoter (mCherry)
Reagents: siRNA pool against mouse genes, 100 nM
Time to read-out: 16 h of LPS stimulation, after 2 days of siRNA transfection
Treatment: bacterial lipopolysaccharide (Salmonella minnesota R595), 10 ng/ml
Read-out: 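Imaged Tnf reporter mCherry in nuclei, minus background, normalised per plate to the median and expressed as robust z-scores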
Scale: Tnf reporter robust z-score: higher = stronger Tnf promoter reporter signal after LPS
Hit rule: 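a well counts as active at a score of -1.3 or below (Tlr4 knock-down control median) or above 3 (raised signal); controls and wells holding fewer than 50 cells are excluded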
Meaning of the calls: active = Tnf reporter clearly lowered or raised; inactive = no clear change in Tnf reporter
In all, the deposit lists about 17,000 reagents; shown is a random part of them. About 1,110 of all reagents (6.6%) were called active. 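Active means lowered or raised reporter signal; replicate intensities are raw and not normalised per plate.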 Unmarked entries are inactive. Further read-outs or replicates are left out here.

4933427E11Rik (RIKEN cDNA 4933427E11 gene) gave Tnf reporter robust z-score 0.59; fewer than 50 cells in well enough cells in well.
Depletion of Gclm (glutamate-cysteine ligase, modifier subunit) gave: Tnf reporter robust z-score -0.22; fewer than 50 cells in well enough cells in well.
Against Fbxo43 (F-box protein 43), the entry reads Tnf reporter robust z-score 2.98; fewer than 50 cells in well enough cells in well.
With knock-down of Rfpl4 (ret finger protein-like 4) the results were Tnf reporter robust z-score 2.01; fewer than 50 cells in well enough cells in well.
Acot4 (acyl-CoA thioesterase 4) gave Tnf reporter robust z-score -0.81; fewer than 50 cells in well enough cells in well.
Against Ak3 (adenylate kinase 3), the entry reads Tnf reporter robust z-score -0.13; fewer than 50 cells in well enough cells in well.
Slc49a3 gave fewer than 50 cells in well fewer than 50 cells per well; well left out of calls.
Against Prm3 (protamine 3), the entry reads Tnf reporter robust z-score -0.08; fewer than 50 cells in well enough cells in well.
After knock-down of H1f8 (H1.8 linker histone), the record shows Tnf reporter robust z-score -0.88; fewer than 50 cells in well enough cells in well.
Knock-down of Fam178b (family with sequence similarity 178, member B) came out at: Tnf reporter robust z-score 0.05; fewer than 50 cells in well enough cells in well.
Knock-down of Naca (nascent polypeptide-associated complex alpha polypeptide) resulted in: Tnf reporter robust z-score -1.22; fewer than 50 cells in well enough cells in well.
Knock-down of Fcrla (Fc receptor-like A) came out at: Tnf reporter robust z-score 0.68; fewer than 50 cells in well enough cells in well.
Against Vps13c (vacuolar protein sorting 13C) the deposit lists Tnf reporter robust z-score 1.24; fewer than 50 cells in well enough cells in well.

4 consecutive reagents from above, quoted:
Rfpl4 (ret finger protein-like 4) → Tnf reporter robust z-score = 2.01; fewer than 50 cells in well = enough cells in well
Acot4 (acyl-CoA thioesterase 4) → Tnf reporter robust z-score = -0.81; fewer than 50 cells in well = enough cells in well
Ak3 (adenylate kinase 3) → Tnf reporter robust z-score = -0.13; fewer than 50 cells in well = enough cells in well
Slc49a3 → fewer than 50 cells in well = fewer than 50 cells per well; well left out of calls

Additional reagents follow.
Knock-down of Or2l13b (olfactory receptor family 2 subfamily L member 13B) came out at: Tnf reporter robust z-score -0.43; fewer than 50 cells in well enough cells in well.
With knock-down of Bicd1 (BICD cargo adaptor 1), the record shows Tnf reporter robust z-score 0.84; fewer than 50 cells in well enough cells in well.
For Or11a4 (olfactory receptor family 11 subfamily A member 4), the entry reads Tnf reporter robust z-score 2.95; fewer than 50 cells in well enough cells in well.
Against Polr3b (polymerase (RNA) III (DNA directed) polypeptide B), the values are Tnf reporter robust z-score 0.51; fewer than 50 cells in well enough cells in well.
Sc5d (sterol-C5-desaturase) scored Tnf reporter robust z-score 1.19; fewer than 50 cells in well enough cells in well.
For Zfp595 (zinc finger protein 595) the deposit lists Tnf reporter robust z-score -0.09; fewer than 50 cells in well enough cells in well.
Or5p79 (olfactory receptor family 5 subfamily P member 79) showed fewer than 50 cells in well fewer than 50 cells per well; well left out of calls.
With knock-down of 4930470P17Rik (RIKEN cDNA 4930470P17 gene), the record shows Tnf reporter robust z-score -0.4; fewer than 50 cells in well enough cells in well.
